The source of these data is patent US9625458B2, “Biosensor” (priority 2002, dated 2017).

B1: histidine BP E167C Pyrene (conjugate, UniProt P0AEU0 23-260, looked up, variant E167C)
Histidine-binding periplasmic …: AIPQNIRIGTDPTYAPFESKNSQGELVGFDIDLAKELCKRINTQCTFVENPLDALIPSLKAKKIDAIMSSLSITEKRQQEIAFTDKLYAADSRLVVAKNSDIQPTVESLKGKRVGVLQGTTQETFGNEHWAPKGIEIVSYQGQDNIYSDLTAGRIDAAFQDEVAASCGFLKQPVGKDYKFGGPSVKDEKLFGVGTGMGLRKEDNELREALNKAFAEMRADGTYEKLAKKYFDFDVYGG
modifications: pyrene label
B2: histidine BP Y88C Pyrene (conjugate, UniProt P0AEU0 23-260, looked up, variant Y88C)
Histidine-binding periplasmic …: B1 Histidine-binding periplasmic … with Y88C, C167E
modifications: pyrene label
B3: histidine BP K229C Pyrene (conjugate, UniProt P0AEU0 23-260, looked up, variant K229C)
Histidine-binding periplasmic …: B1 Histidine-binding periplasmic … with C167E, K229C
modifications: pyrene label
B4: histidine BP Y230C Pyrene (conjugate, UniProt P0AEU0 23-260, looked up, variant Y230C)
Histidine-binding periplasmic …: B1 Histidine-binding periplasmic … with C167E, Y230C
modifications: pyrene label
B5: histidine BP V163C Pyrene (conjugate, UniProt P0AEU0 23-260, looked up, variant V163C)
Histidine-binding periplasmic …: B1 Histidine-binding periplasmic … with V163C, C167E
modifications: pyrene label
B6: Fe(III) BP K85C NBD (conjugate, UniProt P35755 24-332, looked up, variant K85C)
Iron-utilization periplasmic …: DITVYNGQHKEAATAVAKAFEQETGIKVTLNSGKSEQLAGQLKEEGDKTPADVFYTEQTATFADLSEAGLLAPISEQTIQQTAQCGVPLAPKKDWIALSGRSRVVVYDHTKLSEKDMEKSVLDYATPKWKGKIGYVSTSGAFLEQVVALSKMKGDKVALNWLKGLKENGKLYAKNSVALQAVENGEVPAALINNYYWYNLAKEKGVENLKSRLYFVRHQDPGALVSYSGAAVLKASKNQAEAQKFVDFLASKKGQEALVAARAEYPLRADVVSPFNLEPYEKLEAPVVSATTAQDKEHAIKLIEEAGLK
modifications: NBD label
B7: Fe(III) BP V287C Fluorescein (conjugate, UniProt P35755 24-332, looked up, variant V287C)
Iron-utilization periplasmic …: B6 Iron-utilization periplasmic … with C85K, V287C
modifications: fluorescein label
B8: Fe(III) BP V287C JPW4039 (conjugate, UniProt P35755 24-332, looked up, variant V287C)
Iron-utilization periplasmic …: B6 Iron-utilization periplasmic … with C85K, V287C
modifications: JPW4039 dye label
B9: Fe(III) BP V287C NBD (conjugate, UniProt P35755 24-332, looked up, variant V287C)
Iron-utilization periplasmic …: B6 Iron-utilization periplasmic … with C85K, V287C
modifications: NBD label

Changes are numbered by the printed parent chain. In names and notes the source's numbering stands.

The nature of the first series: Fluorescence emission spectra without and with saturating ligand (wavelength shift, ΔIstd, ΔRmax). Conditions: emission maximum, absence of ligand. The protocol: Fluorimetry. All measurements were conducted with an SLM Aminco-Bowman series 2 fluorimeter, with sample stirring at 25° C. Fluorescence emission spectra were acquired with excitation and emission slit widths of 4 and 8 nm, respectively. Photomultiplier tube potential was maintained between 400 and 800 volts. Protein concentrations were in the range of 50 to 1000 nM. Fluorophore-specific excitation was at the following approximate wavelengths: tryptophan, 290 nm; acrylodan, 390 nm; fluorescein, 485 nm; pyrene, 340 nm; NBD and NBDE, 490 nm; JPW4039, 485 nm; JPW4042, 470 nm; JPW4045, 470 nm.
Assessment of fluorescent biosensor function. Fluorescence emission spectra of bPBP-fluorophore conjugates were recorded in the absence and presence of saturating ligand concentrations. Spectral changes were characterized by four parameters: wavelength shift (the difference between the wavelengths of emission maximum in the unbound and ligand-saturated states), direction of intensity change (increase or decrease in intensity at the wavelengths of maximum emission in the two states), standard intensity change (ΔIstd), and standard ratiometric change (ΔR). ΔIstd is defined as the normalized intensity change relative to the average intensity, determined at the wavelength mid-point between the two emission maxima:
[formula] where λstd=(λmax, unbound+λmax, saturated)/2 and I1, I2 are the fluorescence intensities at λstd of each spectrum respectively (FIG. 4A). ΔR is defined in terms of two emission bands, A1 ([λ1, λ2]) and A2 ([λ3, λ4]) (FIG. 4B):
[formula] where ^∘A1, […] the areas in the absence of ligand, and ^∞A1, ^∞A2 the areas in the presence of saturating ligand. A computer program was used to enumerate ΔR for all possible pairs of wavelength bands in the two spectra, to identify the optimal sensing condition, defined as the maximum value of ΔR. Adjustable parameters of the algorithm, and their values used for ΔRmax quantities reported here, are: step size (2 nm), step width (10 nm), minimum integration area limit (fraction of total: 0.1), and maximum integration area limit (fraction of total: 1).
With B1, the “λmax,apo (nm)” value worked out at 384.

With B2, the “λmax,apo (nm)” value is reported as 384.

In the case of B3, the “λmax,apo (nm)” value amounted to 384.

Regarding B4, the “λmax,apo (nm)” value stood at 384.

Turning to B5, the “λmax,apo (nm)” value is given as 384.

As to B6, the “λmax,apo (nm)” value was determined as 545.

As to B7, the “λmax,apo (nm)” value stood at 521.

For B8, the “λmax,apo (nm)” value is reported as 596.

Take B9: the “λmax,apo (nm)” value is reported as 551.

The series is the same for the next values; noted with them: emission maximum, saturating ligand (ligand column).
Regarding B1, the “λmax,sat (nm)” value was 384.

For the molecule B2, the “λmax,sat (nm)” value is reported as 384.

As to B3, the “λmax,sat (nm)” value came to 384.

Take B4: the “λmax,sat (nm)” value worked out at 384.

In the case of B5, the “λmax,sat (nm)” value was found to be 384.

Consider B6, for which the “λmax,sat (nm)” value is recorded as 543.

Regarding B7, the “λmax,sat (nm)” value is 520.

In the case of B8, the “λmax,sat (nm)” value was determined as 595.

For the molecule B9, the “λmax,sat (nm)” value is 552.

Still in this series, the particulars now being: standard intensity change, unbound vs ligand-saturated.
On to B1, for which the ΔIstd stood at 0.21.

Turning to B2, the ΔIstd was found to be 0.15.

On to B3, for which the ΔIstd was found to be 0.16.

Consider B4, for which the ΔIstd is 0.22.

As to B5, the ΔIstd stood at 0.08.

Regarding B6, the ΔIstd is reported as 0.08.

B7: the ΔIstd is recorded as 0.21.

B8: the ΔIstd was 0.13.

Take B9: the ΔIstd is reported as 0.05.

The series is the same for the next values; noted with them: standard ratiometric change, unbound vs ligand-saturated.
Take B1: the ΔRmax is recorded as 1.13.

For the molecule B2, the ΔRmax amounted to 0.44.

Turning to B3, the ΔRmax is 0.73.

B4: the ΔRmax was 0.75.

Consider B5, for which the ΔRmax was found to be 0.78.

Consider B6, for which the ΔRmax came out at 0.12.

Take B7: the ΔRmax was determined as 0.05.

B8: the ΔRmax stood at 0.59.

B9: the ΔRmax is on record as 0.11.
